Values quoted from earlier work as cited in US9623108B2, “Formulation for oral administration with beneficial effects on the cardiovascular system” (ROTTAPHARM S.p.A., priority 2006, dated 2017).
Where two headings read alike, the source gives them in different places. At least one structure is not confirmed: it was looked up by name or label, or the drawing left a doubt.

Experiments:
[1] = tested on: hamsters fed a diet enriched with cholesterol and fats; details: cited from earlier work
[2] = tested on: hypercholesterolaemic patients; details: 500 mg berberine b.i.d. for 3 months, cited from earlier work
[3] = tested on: patients who had hypercholesterolaemia and hypertriglyceridaemia; details: 500 mg berberine in a single dose once a day, cited from earlier work
[4] = 50 mg/kg/d berberine for 10 days
[5] = 100 mg/kg/d berberine for 10 days

In the case of `COc1ccc2cc3[n+](cc2c1OC)CCc1cc2c(cc1-3)OCO2` [berberine, 5,6-dihydro-9,10-dimethoxybenzo[g]-1,3-benzodioxolo[5,6-a]quinolizinium], the “reduction of the increase in LDL” value [1, 4] is given as 26%, the “reduction of the increase in total cholesterol caused by the hyperlipidic diet” value [1, 4] is given as 25% and the “reduction of the increase in LDL” value [1, 5] is given as 41%. For the same compound, the “reduction of the increase in total cholesterol caused by the hyperlipidic diet” value [1, 5] was 38%, the “hepatic steatosis caused by the hyperlipidic diet” value ([1]; animals fed with the hyperlipidic diet) was “able to reduce the hepatic steatosis” and the “decrease in low-density lipoproteins (LDL)” value ([2]; 0% with placebo) was 25%. For the same compound, the “decrease in total cholesterol” value ([2]; 2% with placebo) was 29%, the decrease in triglycerides ([2]; 5% with placebo) was 35% and the HDL [2] was “remained unchanged”. The “reduction of LDL” value ([3]; p<0.0001) was 20%, the “reduction of total cholesterol” value ([3]; p<0.0001) was 16% and the reduction of triglycerides ([3]; p<0.0001) was 22%. The “increase of HDL” value ([3]; p<0.05) was 7%.
